# Laboratory results as given in patent publication US9765378B2, “Preparation method of new recombinant antibacterial polypeptide medicine” (priority 2011, dated 2017).
# Some results were stated once for a whole list of compounds, not compound by compound.
# Test system: Staphylococcus (Staphylococcus aureus, Staphylococcus epidermidis, Staphylococcus saprophyticus, and Staphylococcus sciuri)
# Test: in vitro inhibition and bactericidal effect on bovine mastitis isolated pathogenic bacteria: Staphylococcus
# Type: cell-based
# Conditions: control antibiotics
# Procedure: (5) the recombinant antibacterial polypeptide medicine was tested for the in vitro inhibition and bactericidal effect on bovine mastitis isolated pathogenic bacteria.
substance,measurement,value
penicillin,inhibition and bactericidal effect of controls (MIC50/MBC50 not specified),over 8 ug/ml
